Measured values reported in the supplement of paper PMC12823440, “Inhibitors supercharge kinase turnover through native proteolytic circuits” (Nature, 2025).
Where a name gives a salt, the structure may show the parent alone. The list shows a part of the results. The calls rarely recur for the same compound in another form.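 Kinases, fused to nanoluciferase, were expressed in K562 cells; luminescence was measured every 4 h from 2 to 18 h as percent of control (DMSO = 100%, positive control = 0%). A time point is decreased if signal falls significantly (2 sigma). Hits were called by the authors by a rule that is not shown; the count of time points alone does not decide it.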

Protein sequences, listed by entry. Tags and fused reporters are not part of them.
UniProt Q16620, whole entry, looked up: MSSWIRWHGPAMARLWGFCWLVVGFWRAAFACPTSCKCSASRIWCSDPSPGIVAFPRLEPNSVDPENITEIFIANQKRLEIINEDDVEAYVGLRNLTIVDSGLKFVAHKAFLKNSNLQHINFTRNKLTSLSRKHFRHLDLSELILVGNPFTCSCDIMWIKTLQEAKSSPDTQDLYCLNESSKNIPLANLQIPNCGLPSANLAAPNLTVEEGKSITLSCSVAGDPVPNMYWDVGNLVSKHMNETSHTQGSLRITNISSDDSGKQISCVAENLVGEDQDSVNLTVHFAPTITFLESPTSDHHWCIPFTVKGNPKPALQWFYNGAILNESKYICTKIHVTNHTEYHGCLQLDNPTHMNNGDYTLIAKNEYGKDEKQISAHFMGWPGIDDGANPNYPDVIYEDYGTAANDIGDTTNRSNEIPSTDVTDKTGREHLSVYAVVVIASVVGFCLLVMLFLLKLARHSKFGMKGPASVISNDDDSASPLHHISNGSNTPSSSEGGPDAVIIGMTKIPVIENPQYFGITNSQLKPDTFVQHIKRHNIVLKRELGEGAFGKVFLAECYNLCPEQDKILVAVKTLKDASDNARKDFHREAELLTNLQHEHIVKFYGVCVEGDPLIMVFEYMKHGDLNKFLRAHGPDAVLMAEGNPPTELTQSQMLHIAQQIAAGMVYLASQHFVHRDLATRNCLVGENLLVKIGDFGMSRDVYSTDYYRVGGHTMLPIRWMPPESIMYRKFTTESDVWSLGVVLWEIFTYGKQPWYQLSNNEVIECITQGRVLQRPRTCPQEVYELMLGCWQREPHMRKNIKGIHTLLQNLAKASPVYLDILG

The compounds below were run against NTRK2 (UniProt Q16620) (assay: kinase-Nluc reporter destabilization hit call (1 = scored as downregulated) (binary); higher = compound decreases kinase abundance). Details: 10 µM; K562; 2-18 h.

kinase-Nluc reporter destabilization hit call, inactive:
COc1cc2nccc(Oc3ccc(NC(=O)C4(C(=O)Nc5ccc(F)cc5)CC4)cc3)c2cc1OC [Cabozantinib (S-malate)] 0
Cn1cc(-c2cnc3ccc4ccc(CS(=O)(=O)NCc5ccccn5)cc4c(=O)c3c2)cn1 [MK-8033 (hydrochloride)] 0
CNC(=O)c1ccc(Nc2ncc(C(F)(F)F)c(NCc3nccnc3N(C)S(C)(=O)=O)n2)cc1 [Defactinib] 0
N#CCNC(=O)c1ccc(-c2ccnc(Nc3ccc(N4CCOCC4)cc3)n2)cc1 [Momelotinib] 0
CC(=O)c1c(C)c2cnc(Nc3ccc(N4CCNCC4)cn3)nc2n(C2CCCC2)c1=O [Palbociclib (isethionate)] 0
Nc1cncc(-c2cn3ccnc3c(Nc3ccc(N4CCN(C5COC5)CC4)cc3)n2)n1 [Lanraplenib (succinate)] 0
C#Cc1cccc(Nc2ncnc3cc4c(cc23)OCCOCCOCCO4)c1 [Icotinib] 0
O=C(O)c1ccc2c(c1)nc(Nc1cccc(Cl)c1)c1ccncc12 [Silmitasertib (sodium salt)] 0
CC(C)Nc1cc(-c2c[nH]c(C(=O)N[C@H](CO)c3cccc(Cl)c3)c2)c(Cl)cn1 [Ulixertinib (hydrochloride)] 0
C=CC(=O)N1CCN(c2ncnc3c(F)c(-c4c(O)cccc4F)c(Cl)cc23)CC1 0
CN(C)C(=O)c1cc2cnc(Nc3ccc(N4CCNCC4)cn3)nc2n1C1CCCC1 [Ribociclib] 0

Sorted by molar mass (low to high): part of the list above
kinase-Nluc reporter destabilization hit call, inactive:
CC(C)Nc1cc(-c2c[nH]c(C(=O)N[C@H](CO)c3cccc(Cl)c3)c2)c(Cl)cn1 [Ulixertinib (hydrochloride)] 0
Cn1cc(-c2cnc3ccc4ccc(CS(=O)(=O)NCc5ccccn5)cc4c(=O)c3c2)cn1 [MK-8033 (hydrochloride)] 0
COc1cc2nccc(Oc3ccc(NC(=O)C4(C(=O)Nc5ccc(F)cc5)CC4)cc3)c2cc1OC [Cabozantinib (S-malate)] 0
